Measured data: PubChem BioAssay AID1259254 (NCATS, 2017)

- Screen: 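Gene knock-downs that lead to re-replication, shown by excess G2 DNA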 (primary screen)
- Cell system: human HCT116 colorectal cancer cells
- Reagent: single siRNA against human genes
- Duration: 3 days
- Detection: 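Nuclei stained with Hoechst and imaged; cell-cycle phase assigned by DNA content; G2 share scaled per plate, non-targeting siRNA 0%, GMNN siRNA 100%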
- Reading the numbers: G2 robust z-score and G2 cells, % of GMNN control: higher = more G2 cells, more excess DNA replication; raw share of cells in G2: higher = larger share of cells with G2 DNA content
- Hit rule: 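Active siRNAs have a G2 robust z of 5 or more median absolute deviations over the median, which in these data means about 38% or higher of GMNN control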
The whole screen tested about 59,000 reagents; below is an unselected part. About 1,550 of them (2.6%) were called active. 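G2 share is only a proxy for re-replication; each gene was hit by three separate siRNAs, and active genes were retested.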 Raw values vary from plate to plate and are shown uncorrected. A number with no mark means an inactive call. The record does not give: the amount of reagent.

Target gene | PubChem SID | G2 robust z-score | G2 cells, % of GMNN control | raw share of cells in G2 (%)
NRM | SID160730331 | 0.638 | 7.45 | 7.91
NRM | SID160730332 | -0.696 | -1.93 | 3.34
NRM | SID160730333 | 1.2 | 11.4 | 7.44
MYD88 | SID160731261 | -0.492 | -0.494 | 5.17
MYD88 | SID160777636 | -0.537 | -0.813 | 2.93
MYD88 | SID160777637 | 1.55 | 13.9 | 11
WBP11P3 | SID160734251 | -1.31 | -6.28 | 1.22
WBP11P3 | SID160771267 | 0.447 | 6.11 | 5.86
WBP11P3 | SID160771268 | 1.27 | 11.9 | 7.06
MTA3 | SID160726826 | -0.122 | 2.11 | 3.93
MTA3 | SID160746125 | -0.446 | -0.167 | 5.58
MTA3 | SID160746126 | -0.322 | 0.703 | 4.6
MTA3 | SID160746127 | -0.907 | -3.41 | 2.99
MTA3 | SID160772134 | 2.65 | 21.6 | 12.2
MTA3 | SID160772135 | -0.638 | -1.52 | 2.83
ATG16L2 | SID160753457 | -0.0482 | 2.63 | 5.2
ATG16L2 | SID160753458 | -0.203 | 1.54 | 3.48
ATG16L2 | SID160753459 | -0.0738 | 2.45 | 3.7
LMTK2 | SID160732108 | 0.124 | 3.84 | 6.78
LMTK2 | SID160732116 | -0.608 | -1.31 | 4.71
LMTK2 | SID160732125 | 0.0846 | 3.56 | 4.82
VCF2 | SID160753796 | -0.775 | -2.48 | 3.03
VCF2 | SID160753797 | 0.498 | 6.47 | 5.03
VCF2 | SID160753798 | 0.888 | 9.22 | 5.85
HTRA3 | SID160732175 | 1.09 | 10.7 | 10.1
HTRA3 | SID160754589 | 1.54 | 13.8 | 9.02
HTRA3 | SID160754590 | 0.384 | 5.67 | 6.37
MAL | SID160776928 | -0.4 | 0.155 | 3.25
MAL | SID160776929 | 0.516 | 6.6 | 8.09
MAL | SID160776930 | 0.669 | 7.67 | 8.33
PRPF40B | SID160736938 | 1.35 | 12.5 | 9.11
PRPF40B | SID160736939 | 2.51 | 20.7 | 12.9
PRPF40B | SID160736940 | -0.325 | 0.681 | 3.54
AWAT1 | SID160759699 | -0.367 | 0.387 | 6.14
AWAT1 | SID160759700 | 0.286 | 4.98 | 6.52
AWAT1 | SID160759701 | 1.56 | 13.9 | 10.6
ZNF445 | SID160765175 | 0.898 | 9.29 | 6.29
ZNF445 | SID160765176 | 4.07 | 31.6 | 14.1
ZNF445 | SID160765177 | 6.08 (active) | 45.8 | 19.6
OR7G3 | SID160766589 | 4.23 | 32.7 | 15.7
OR7G3 | SID160766590 | -0.555 | -0.94 | 3.14
OR7G3 | SID160766592 | 1.27 | 11.9 | 9.74
HPS5 | SID160730248 | 1.57 | 14 | 10.5
HPS5 | SID160730249 | -0.466 | -0.311 | 4.01
HPS5 | SID160730250 | 0.591 | 7.13 | 5.84
ZYG11A | SID160767823 | -0.302 | 0.843 | 3.95
ZYG11A | SID160767824 | 0.0689 | 3.45 | 4.73
ZYG11A | SID160767825 | 2.2 | 18.5 | 9.39
ZNG1E | SID160732699 | -1.09 | -4.73 | 1.71
ZNG1E | SID160732700 | -0.137 | 2 | 3.81
ZNG1E | SID160761544 | -0.13 | 2.05 | 5.05
SLC51B | SID160756072 | -0.196 | 1.59 | 4.73
SLC51B | SID160756073 | 0.474 | 6.3 | 5.21
SLC51B | SID160756074 | -0.269 | 1.07 | 2.13
RELA | SID160715787 | 3.83 | 29.9 | 15.3
RELA | SID160715788 | 3.67 | 28.8 | 15.7
RELA | SID160731652 | 0.544 | 6.8 | 6.41
EXOSC6 | SID160755631 | 0.718 | 8.02 | 8.41
EXOSC6 | SID160755632 | 0.613 | 7.28 | 9.05
EXOSC6 | SID160755633 | 0.302 | 5.09 | 6.4
CDX2 | SID160741458 | 0.0118 | 3.05 | 6.05
CDX2 | SID160741468 | 0.347 | 5.41 | 5.96
CDX2 | SID160741478 | 1.33 | 12.3 | 9.49
WNT8B | SID160718852 | 4.85 | 37.1 | 21.6
WNT8B | SID160718853 | 0.452 | 6.15 | 6.33
WNT8B | SID160718854 | -0.257 | 1.16 | 3.76
POSTN | SID160728907 | 2.41 | 19.9 | 14.4
POSTN | SID160728908 | -0.157 | 1.86 | 4.44
POSTN | SID160728909 | 0.721 | 8.04 | 9.65

Already shown: 11 of the entries above.
Target gene | PubChem SID | G2 robust z-score | G2 cells, % of GMNN control | raw share of cells in G2 (%)
AWAT1 | SID160759700 | 0.286 | 4.98 | 6.52
AWAT1 | SID160759701 | 1.56 | 13.9 | 10.6
ZNF445 | SID160765175 | 0.898 | 9.29 | 6.29
ZNF445 | SID160765176 | 4.07 | 31.6 | 14.1
ZNF445 | SID160765177 | 6.08 (active) | 45.8 | 19.6
OR7G3 | SID160766589 | 4.23 | 32.7 | 15.7
OR7G3 | SID160766590 | -0.555 | -0.94 | 3.14
OR7G3 | SID160766592 | 1.27 | 11.9 | 9.74
HPS5 | SID160730248 | 1.57 | 14 | 10.5
HPS5 | SID160730249 | -0.466 | -0.311 | 4.01
HPS5 | SID160730250 | 0.591 | 7.13 | 5.84
